From article PMC3154960
Changes are numbered by the printed parent chain. These are yes or no findings as the source states them, for the method shown. Some binding calls cover weakened binding; strength is not graded here.

The chains behind the UniProt entries cited, without tags or fusion partners.
UniProt P11978: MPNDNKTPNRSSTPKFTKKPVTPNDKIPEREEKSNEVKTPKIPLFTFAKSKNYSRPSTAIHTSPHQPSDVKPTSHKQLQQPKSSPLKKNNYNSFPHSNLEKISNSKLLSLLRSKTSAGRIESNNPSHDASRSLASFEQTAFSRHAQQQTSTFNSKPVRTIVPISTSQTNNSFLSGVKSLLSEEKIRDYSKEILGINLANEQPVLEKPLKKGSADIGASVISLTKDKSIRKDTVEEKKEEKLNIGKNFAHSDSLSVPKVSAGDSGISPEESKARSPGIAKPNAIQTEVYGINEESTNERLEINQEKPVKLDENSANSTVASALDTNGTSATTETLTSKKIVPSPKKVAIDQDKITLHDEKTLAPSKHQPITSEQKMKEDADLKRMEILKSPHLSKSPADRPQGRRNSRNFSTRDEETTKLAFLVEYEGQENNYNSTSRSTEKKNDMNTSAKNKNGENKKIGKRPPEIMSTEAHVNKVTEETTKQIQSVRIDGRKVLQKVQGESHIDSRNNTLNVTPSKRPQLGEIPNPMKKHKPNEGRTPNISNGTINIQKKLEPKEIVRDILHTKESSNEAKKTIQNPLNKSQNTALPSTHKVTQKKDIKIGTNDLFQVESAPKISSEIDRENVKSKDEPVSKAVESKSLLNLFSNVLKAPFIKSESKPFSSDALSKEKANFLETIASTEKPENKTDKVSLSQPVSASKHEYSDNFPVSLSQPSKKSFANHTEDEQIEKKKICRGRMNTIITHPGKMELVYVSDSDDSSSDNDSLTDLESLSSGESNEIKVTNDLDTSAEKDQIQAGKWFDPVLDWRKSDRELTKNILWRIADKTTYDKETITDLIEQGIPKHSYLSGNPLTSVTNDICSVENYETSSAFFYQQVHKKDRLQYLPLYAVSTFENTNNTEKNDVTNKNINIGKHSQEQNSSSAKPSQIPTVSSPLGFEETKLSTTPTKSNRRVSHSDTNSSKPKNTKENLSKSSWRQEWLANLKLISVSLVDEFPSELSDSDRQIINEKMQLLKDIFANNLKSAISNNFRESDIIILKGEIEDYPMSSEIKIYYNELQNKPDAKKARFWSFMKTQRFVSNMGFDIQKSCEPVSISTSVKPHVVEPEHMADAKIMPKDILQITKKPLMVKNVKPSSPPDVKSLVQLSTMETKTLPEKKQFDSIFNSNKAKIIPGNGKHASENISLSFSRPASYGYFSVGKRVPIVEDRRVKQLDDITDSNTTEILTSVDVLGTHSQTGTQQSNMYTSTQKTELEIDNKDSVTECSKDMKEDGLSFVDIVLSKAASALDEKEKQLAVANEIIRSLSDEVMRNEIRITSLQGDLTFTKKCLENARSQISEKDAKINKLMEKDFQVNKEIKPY

What was measured:
[1] = biological target: T1, YKU80 BAIT (S. cerevisiae) (UniProt Q04437); test: two-hybrid; pEG202-based BAIT (YKU80 or yku80-p1), pJG4-5-based PREY (full-length Sir4), LEU2 reporter, growth on Gal –Leu plates; strain YAB327 (yku70-Δ derivative of EGY48) carrying YKU70, yku70-R456E, yku70-p1, yku70-K422E or pRS416
T1 sequence: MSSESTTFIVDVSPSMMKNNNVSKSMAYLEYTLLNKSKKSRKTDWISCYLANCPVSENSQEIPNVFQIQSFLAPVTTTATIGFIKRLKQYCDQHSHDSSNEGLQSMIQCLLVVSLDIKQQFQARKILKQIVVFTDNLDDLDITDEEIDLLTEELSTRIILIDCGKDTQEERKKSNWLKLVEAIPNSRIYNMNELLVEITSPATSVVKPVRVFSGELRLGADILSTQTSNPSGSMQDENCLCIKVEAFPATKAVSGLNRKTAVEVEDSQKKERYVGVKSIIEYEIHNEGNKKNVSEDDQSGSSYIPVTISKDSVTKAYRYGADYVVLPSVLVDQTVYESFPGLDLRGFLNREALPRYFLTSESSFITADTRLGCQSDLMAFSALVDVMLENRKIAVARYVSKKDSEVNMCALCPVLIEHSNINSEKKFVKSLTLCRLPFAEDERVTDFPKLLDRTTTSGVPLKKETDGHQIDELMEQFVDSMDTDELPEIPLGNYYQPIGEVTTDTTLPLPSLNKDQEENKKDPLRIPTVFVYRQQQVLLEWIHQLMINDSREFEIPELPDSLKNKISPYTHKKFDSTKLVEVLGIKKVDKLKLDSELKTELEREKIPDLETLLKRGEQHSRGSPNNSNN

[2] = biological target: T2, yku80-p1 BAIT (S. cerevisiae) (UniProt Q04437); test: as above
T2 sequence: T1 sequence with S400D, K401E, K402E, S404D

binding [1]: binds
binding [2]: binds
Substance: SIR4 PREY (from UniProt P11978 1-1358)
